The assay has as its target T1, Mic19-Flag (human) (UniProt Q9NX63).
T1 sequence: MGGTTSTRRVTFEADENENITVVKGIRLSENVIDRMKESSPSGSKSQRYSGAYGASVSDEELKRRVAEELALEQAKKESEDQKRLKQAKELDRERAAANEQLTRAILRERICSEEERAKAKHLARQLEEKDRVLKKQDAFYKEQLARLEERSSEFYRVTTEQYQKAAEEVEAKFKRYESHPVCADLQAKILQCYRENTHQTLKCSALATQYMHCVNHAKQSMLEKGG
Description: affinity purification with mass spectrometry.

These are yes or no findings as the source states them, for the method shown. Binding seen in cells or lysates may run through a third protein. These calls come from enrichment with a bait or labelling near it, and not all partners need be listed. Tags and fused reporters may be left off the sequences shown.

B1: Sam50 (endogenous) (protein, UniProt Q9Y512 1-469)
chain: MGTVHARSLEPLPSSGPDFGGLGEEAEFVEVEPEAKQEILENKDVVVQHVHFDGLGRTKDDIIICEIGDVFKAKNLIEVMRKSHEAREKLLRLGIFRQVDVLIDTCQGDDALPNGLDVTFEVTELRRLTGSYNTMVGNNEGSMVLGLKLPNLLGRAEKVTFQFSYGTKETSYGLSFFKPRPGNFERNFSVNLYKVTGQFPWSSLRETDRGMSAEYSFPIWKTSHTVKWEGVWRELGCLSRTASFAVRKESGHSLKSSLSHAMVIDSRNSSILPRRGALLKVNQELAGYTGGDVSFIKEDFELQLNKQLIFDSVFSASFWGGMLVPIGDKPSSIADRFYLGGPTSIRGFSMHSIGPQSEGDYLGGEAYWAGGLHLYTPLPFRPGQGGFGELFRTHFFLNAGNLCNLNYGEGPKAHIRKLAECIRWSYGAGIVLRLGNIARLELNYCVPMGVQTGDRICDGVQFGAGIRFL
Turning to B1, the binding entry is “binds”.

The values above are taken from paper doi:10.1101/345959.
